Common to all, as to assay: enzyme reaction in vitro
One data set deals with T1, BsmI (UniProt Q8RLN4).
T1 sequence (looked up, limits assumed): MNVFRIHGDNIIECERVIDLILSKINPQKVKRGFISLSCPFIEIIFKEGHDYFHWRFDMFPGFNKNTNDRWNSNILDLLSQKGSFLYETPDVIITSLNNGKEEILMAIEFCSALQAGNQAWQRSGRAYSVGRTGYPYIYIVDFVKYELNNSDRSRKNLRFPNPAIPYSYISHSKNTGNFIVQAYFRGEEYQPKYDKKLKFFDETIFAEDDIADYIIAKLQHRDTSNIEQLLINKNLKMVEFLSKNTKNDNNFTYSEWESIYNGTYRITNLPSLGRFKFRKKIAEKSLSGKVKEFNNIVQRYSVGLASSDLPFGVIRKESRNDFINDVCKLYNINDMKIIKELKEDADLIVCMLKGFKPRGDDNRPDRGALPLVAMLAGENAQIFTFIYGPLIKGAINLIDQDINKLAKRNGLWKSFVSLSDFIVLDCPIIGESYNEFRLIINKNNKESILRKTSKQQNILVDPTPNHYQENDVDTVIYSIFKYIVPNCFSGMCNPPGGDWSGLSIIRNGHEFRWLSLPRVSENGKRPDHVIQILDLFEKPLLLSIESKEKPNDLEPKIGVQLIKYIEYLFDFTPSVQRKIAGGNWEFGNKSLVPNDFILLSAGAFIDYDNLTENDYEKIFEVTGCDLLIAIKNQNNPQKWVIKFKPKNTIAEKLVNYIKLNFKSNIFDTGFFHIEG
As to conditions: label: 32P 5' end.

Another data set concerns the target T2, BsoBI (Bacillus sp.) (UniProt P70985).
T2 sequence (looked up, limits assumed): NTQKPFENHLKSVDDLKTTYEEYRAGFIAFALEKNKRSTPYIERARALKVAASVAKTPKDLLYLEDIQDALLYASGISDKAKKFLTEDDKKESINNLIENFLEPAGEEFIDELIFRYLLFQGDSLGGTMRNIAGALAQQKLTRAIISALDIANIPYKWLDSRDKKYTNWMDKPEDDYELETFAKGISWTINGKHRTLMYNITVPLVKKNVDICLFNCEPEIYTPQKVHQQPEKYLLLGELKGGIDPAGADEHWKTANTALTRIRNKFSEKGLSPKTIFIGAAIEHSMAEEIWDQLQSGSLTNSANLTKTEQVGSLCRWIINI
As to conditions: protein details: New England BioLabs.

Another data set concerns BstOI. Particulars: PS at A and C (one strand, hemimodified); unmodified strand nicked; label: 32P 5' end.
The test system of another data set is BstNI. Particulars: PS at A and C (one strand, hemimodified); unmodified strand nicked; label: 32P 5' end.
The subject of a further data set is BslI. As to conditions: PS at C (one strand, hemimodified); site 7-17; unmodified strand nicked; label: 32P 5' end.
The next data set relates to AccI. As to conditions: PS at C (one strand, hemimodified); site 17-22; unmodified strand nicked; poor stability at 50-65 C; label: 32P 5' end.
The next data set has as its target T3, BsmAI (UniProt Q6UQ64).
T3 sequence (looked up, limits assumed): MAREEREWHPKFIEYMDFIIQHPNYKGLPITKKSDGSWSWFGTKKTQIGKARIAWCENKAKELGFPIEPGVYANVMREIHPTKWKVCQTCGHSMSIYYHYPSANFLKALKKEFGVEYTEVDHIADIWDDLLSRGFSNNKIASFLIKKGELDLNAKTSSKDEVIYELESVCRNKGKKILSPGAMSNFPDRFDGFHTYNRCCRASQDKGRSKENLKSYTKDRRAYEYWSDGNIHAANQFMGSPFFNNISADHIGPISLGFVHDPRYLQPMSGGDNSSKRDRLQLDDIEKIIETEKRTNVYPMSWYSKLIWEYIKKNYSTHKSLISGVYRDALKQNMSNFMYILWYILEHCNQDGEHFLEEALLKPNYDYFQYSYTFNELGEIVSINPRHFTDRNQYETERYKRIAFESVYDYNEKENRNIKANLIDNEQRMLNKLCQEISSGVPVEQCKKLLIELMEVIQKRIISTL
As to conditions: unmodified strand nicked, label: 32P 5' end.

The next data set deals with BsrI. As to conditions: PS at A (one strand, hemimodified); unmodified strand nicked; label: 32P 5' end.
The test system of another data set is BsrDI. Particulars: PS at T (one strand, hemimodified); unmodified strand nicked; label: 32P 5' end.
The next data set relates to BstXI. As to conditions: PS at T (one strand, hemimodified); unmodified strand nicked; label: 32P 5' end.
In a further data set the target is T4, MwoI (UniProt O59646).
T4 sequence (looked up, limits assumed): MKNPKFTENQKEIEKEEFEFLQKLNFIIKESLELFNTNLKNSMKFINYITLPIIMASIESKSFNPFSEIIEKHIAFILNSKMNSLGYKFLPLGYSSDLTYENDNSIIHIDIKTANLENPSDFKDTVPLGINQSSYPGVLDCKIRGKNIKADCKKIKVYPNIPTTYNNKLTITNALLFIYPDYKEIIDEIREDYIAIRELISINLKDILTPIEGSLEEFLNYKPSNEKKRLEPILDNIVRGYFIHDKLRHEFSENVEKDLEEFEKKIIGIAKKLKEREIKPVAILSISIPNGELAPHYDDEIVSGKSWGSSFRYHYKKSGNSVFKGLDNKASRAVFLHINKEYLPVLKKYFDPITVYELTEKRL
Particulars: PS at G and T (one strand, hemimodified); unmodified strand nicked; no product in linear SDA; label: 32P 5' end.

Where [1] appears, read: PS at C (one strand, hemimodified), unmodified strand nicked, label: 32P 5' end.

For some of these results: Where a protein sequence is shown, tags need not be part of it. For some of these results: For at least one entry, the source does not settle the construct or the ends of the probe.

“CCGGAATTCTGGTTCCTGGAGACCCAGTCTTTTGGCATTCACTCGGCCGGATCCGC (double strand) [TP-1C duplex, dATPalphaS]”: the “activity on this sequence” value with BsmI (PS at A (one strand, hemimodified), modified strand protected, unmodified nicked) is on record as “active”.
Turning to “CCGGAATTCGAATGCCAAAAGACTGGGTCTCCAGGAACCAACTCGGCCGGATCCGC (double strand) [TP-1 duplex, dCTPalphaS]”, the “activity on this sequence” value with BsmI (PS at C (one strand, hemimodified), modified strand nicked, unmodified strand protected) is on record as “active”.
For the sequence “GGAATTCGCAGCCATTGCGTCTACCAACCTCGGGACTCGGCCGGATCCGG (double strand) [TP-4C duplex, dCTPalphaS]”, the “activity on this sequence” value with BsoBI (Bacillus sp.) (setting [1]) is “active”.
For “GGATTCGCCTCCAGATCTGGTCCTCGGGTAGACCCGGAGCTGAATGAAGC / CCGGAGCTGAATGAAGCCATACCAAACGACGAGCGTGACACCACGATGCCTGCAGCAATGGCAACAACGT [BsoBI SDA target with primer XBsoB1-2 (filled in to 103 bp)]”, the “activity on this sequence” value in the data set with BsoBI (Bacillus sp.) (PS at C in extended regions, 81-mer product detectable in about 6 min, 60 C, faster at 6 than 15 mM MgCl2, pH 8.3, label: 32P internal, only the site is given) is listed as “active”.
For “CCGGAATTCTGGTTCCTGGAGACCCAGTCTTTTGGCATTCACTCGGCCGGATCCGC (double strand) [TP-1C duplex, dATPalphaS + dCTPalphaS]”, the “activity on this sequence” value with BstOI and in the data set on BstNI was “active” in each case.
Regarding “GGAATTCCCGAGGAAGGTAGACGCAATGGCGGCACTCGGCCGGATCCGG (double strand) [TP-4 duplex, dCTPalphaS]”, the “activity on this sequence” value in the data set with BslI and in the data set with AccI was “active” each time.
“GAGAATTCGTGGACTGCAGATGTCTCCAATCCCCCCTCACAACGTTCCAGTAACC (double strand) [SSP-BSMA duplex, dGTPalphaS]”: the “activity on this sequence” value in the data set with BsmAI (PS at G (one strand, hemimodified)) was “active”.
For “GGAATTCCGTCCCAGTGATGAAGATCGCAGCGCCCGAGACTCGGCCGGATCCGC (double strand) [TP-3 duplex, dATPalphaS]”, in the data set with BsrI, the “activity on this sequence” value is “active”.
In the case of “GGAATTCGCAGCCATTGCGTCTACCAACCTCGGGACTCGGCCGGATCCGG (double strand) [TP-4C duplex, TTPalphaS]”, the “activity on this sequence” value in the data set on BsrDI is reported as “active”.
For “TACAATAGTCCCAATCTACCCGAGCTTACACGGAGGCATCAAGTG (double strand) [CDAva1S1 duplex, TTPalphaS]”, the “activity on this sequence” value in the data set with BsoBI (Bacillus sp.) (PS at T (one strand, hemimodified), unmodified strand nicked, label: 32P 5' end) is listed as “active”.
With “CCGGAATTCGAATGCCAAAAGACTGGGTCTCCAGGAACCAACTCGGCCGGATCCGC (double strand) [TP-1 duplex, dGTPalphaS + TTPalphaS]”, the “activity on this sequence” value in the data set with BsmAI (PS at G and T (one strand, hemimodified)) is listed as “active”.
On to “CCGGAATTCGAATGCCAAAAGACTGGGTCTCCAGGAACCAACTCGGCCGGATCCGC (double strand) [TP-1 duplex, TTPalphaS]”, for which, in the data set with BstXI, the “activity on this sequence” value is “active”.
With “GGAATTCCCGAGGAAGGTAGACGCAATGGCGGCACTCGGCCGGATCCGG (double strand) [TP-4 duplex, dGTPalphaS + TTPalphaS]”, the “activity on this sequence” value with MwoI is “active”.
Take “TACAATAGTCCCAATCTACTCGGGCTTACACGGAGGCATCAAGTG (double strand) [CDAva2S1 duplex, dCTPalphaS]”: the “activity on this sequence” value with BsoBI (Bacillus sp.) (setting [1]) is on record as “active”.
